In patent US20100249184A1, “INDUCTION AND/OR MAINTENANCE OF TUMOR DORMANCY BY DISRUPTION OF UROKINASE PLASMINOGEN ACTIVATOR RECEPTOR-INTEGRIN INTERACTION” (MOUNT SINAI SCHOOL OF MEDICINE, priority 2007, published 2010) one finds binding data, which are given here for 1 molecule.

The assay has as its target purified human α5β1-integrin (human). As to the kind of experiment: solid-phase dot-ELISA, peptide immobilized. For orientation: An ELISA detects its analyte on a solid surface through an enzyme-linked reagent.

These are yes or no findings as the source states them, for the method shown. A result given as binding can be weak or reduced; the word gives no strength.

B1: synthetic peptide 240-248 with both cysteines replaced by alanines (peptide)
peptide: GAATASMAQ
As to B1, the binding entry was “binds”.
